Measured values: PubChem BioAssay AID1347426 (Functional Genomics Laboratory (NCATS/FGL), 2020)
Hit rate of the full screen: of about 31,000 sequences, about 1,400 (4.5%) were called active.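 Rule for the calls: active = median seed-adjusted z-score above 1 or below -1; inactive = the rest.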 Some of the results follow.

Assay: Novel Modifiers of Survival Motor Neuron (SMN) Protein: Gene Identification via Genome-wide siRNA Screen;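 note: luminescence tracks full-length SMN protein made from the SMN2 reporter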
Settings: HEK293T SMN2-luciferase reporter, siRNA knockdown, 72 h; actives lie on both sides
Procedure, shortened: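 siRNA screen, 10418 genes ×3 siRNAs; 1 pmol/well, lipid reverse transfection into HEK293T SMN2-luc reporter line. 72 h, 37 °C, 5% CO2; ONE-Glo readout. Data: neg-ctrl normalized, log10, MAD; hit = MAD >1.0 or < -1.0.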

Sequence | median seed-adjusted z-score
CAGUGUGGCUGACAACUUATT against SERTAD1 | inactive: 0.376
AUACUUUCCCGCAAAAAGATT against INSL4 | inactive: 0.399
GAAGGAUUAUCCCAUCUAATT against CLNS1A | inactive: 0.232
GGACCAUAAUCAAUGUAGATT against ZNF585A | inactive: -0.168
GGGACAUUGGUACAGGUUUTT against CYP11B2 | inactive: 0.459
CCUGUGUAUGUUGGACUGATT against PITX1 | inactive: 0
GUCUUUGACUUACUGAACATT against PPIL2 | inactive: -0.467
CUCUAAGCAUUGAACCAGUTT against RAB3IP | inactive: -0.191
GCAUGAUGGUAUUGAGCUUTT against MS4A6A | inactive: 0.174
GCCUCUAAGUCUCGAGGAATT against TRPM3 | inactive: -0.633
CAAAGACUCCACAUACGUUTT against PCM1 | inactive: -0.00218
CCAAGUACAUAUCCUGUAATT against BAG4 | inactive: 0.111
GAAUACCUACAGAUGUAAATT against ZNF429 | inactive: 0.479
GCGCUUUUCUGGGUGAACUTT against PRKDC | inactive: -0.485
AUACAGCUCUAGAUAAGAATT against CAMK1 | inactive: 0.325
GAAGGAUUACUAAAUUAGATT against LSM5 | inactive: -0.661
GGCGAUGAUAGACUACUAATT against PCCA | inactive: 0
GAAAAUGAGAAAACACGAATT against SLC16A6 | inactive: 0.195
CCGAGAAACUGGACCUCAATT against POU4F1 | inactive: -0.138
GGCGGAUAAUGAUGGAGAUTT against LOC4951 | inactive: 0.0691
CUUCAGUUCGAAUACAUUUTT against RFC5 | inactive: -0.644
GGACACUUGGAUAUGAUCATT against AQP3 | inactive: -0.0863
GGAUCGUGCUAUCUAAACATT against TTLL5 | inactive: 0
AUUUAUUUGUUGAGGUUAUTT against PIM3 | active: -1.01
GGAUAACCGUAUUGCCCAATT against AQP7 | inactive: 0.0827
CAGAUGAAGCUGUAGCGUATT against HSPA5 | inactive: 0.19
GCUCGUAAGUUGGUGAUCATT against TPM3 | inactive: 0.111

Sequence | median seed-adjusted z-score
GGAAGUACAUGAACGCAGUTT against EFTUD1 | active: -1.39
CCUGUUUGCUAACAAGUUUTT against GCNT2 | inactive: -0.0107
GCAGCUCUUUUAGAUCAAATT against WASL | inactive: 0.143
CCCUGGAGCUGUUCGACAATT against LRRC4 | inactive: 0.255
GGUCGAUAAUAGGAAGUUUTT against SPRED2 | inactive: -0.749
AGGUGAACGUGGAUGAAGUTT against HBB | inactive: -0.151
GAAGACCUCCAGUCUAUAATT against TRAF1 | inactive: 0.518
GUGAAAAGCCUAAAUGACATT against ATP5O | inactive: -0.324
UCUCUGUACUCUCAACCAATT against IL20RB | inactive: -0.413
AGCAAGUAUUGAUUCGUCATT against MYF6 | inactive: -0.0315
CCAACAAUUUCAGAGAGUATT against MMP1 | inactive: 0.205
GCAGAGGAGUUCACCGAUATT against GUCA1A | inactive: 0.101
UGAUCACGCUGACCACCAUTT against KCNQ2 | inactive: 0.0368
AGCUUACCCUUCACACUGATT against SLC2A8 | inactive: -0.105
GCAUGAACUACAUCACAAATT against CRTAM | inactive: 0.346
CUUCCAUGCCUUUGACCUATT against CDCP2 | inactive: 0.0708
GGAUCAACAGACAACAUCATT against MAP2 | inactive: 0.238
GGAUAUACUCAGUUAACAATT against XIAP | inactive: -0.0329
GUAAGGAUCCUAAACGAGATT against ZCCHC13 | inactive: -0.297
GGAUUCCUGUUGAGGAGAUTT against PDE6G | inactive: 0.0109
GGCUAUAAUGCACGACUUATT against DNAH11 | inactive: 0.104
CAACAAUUGAGGCAUCAAATT against PNLIPRP1 | inactive: -0.725
GGAAAAAUAUCCAGCAAAATT against UBE2E2 | active: -1.77
GGAGUCGUGUUUUGGAAAATT against SHPK | inactive: 0
CGGUAUGAAGGAAACGUGATT against DHX37 | inactive: -0.126
CCUGAGUUUUAAAUUCGAATT against COMTD1 | inactive: 0.0487

Reformatted: results already given
Sequence	median seed-adjusted z-score
CCAACAAUUUCAGAGAGUATT against MMP1	inactive: 0.205
GGCUAUAAUGCACGACUUATT against DNAH11	inactive: 0.104
CGGUAUGAAGGAAACGUGATT against DHX37	inactive: -0.126
